We go through two molecules from paper PMC5476196, “Uptake, biotransformation and elimination of selected pharmaceuticals in a freshwater invertebrate measured using liquid chromatography tandem mass spectrometry” (Chemosphere, 2017).

Data set [1] concerns Gammarus pulex. Put plainly: Biotransformation products in G. pulex after exposure to propranolol, carbamazepine or diazepam (LC-MS/MS). To be noted: after exposure to the precursor compound (propranolol 10 μg L^−1, diazepam 1 μg L^−1). The method, then: (§1) Individual adult organisms (n = 25), both male and female (>5 mg wet weight) were placed in Pyrex glass beakers. G. pulex were carefully transferred to beakers using blunt forceps to avoid any harm to the organisms before exposure. Each beaker contained 25 organisms in 200 mL of exposure media (AFW and test compound). […] All exposure media contained <0.001% of organic solvent (methanol). A total of 300 organisms were used per compound exposure and were sampled for n = 3 per time-point. […] These were subsequently analysed for background contamination. […] Each animal specimen was rinsed with ultra-pure water and then frozen at −20 °C.
Briefly, separations were performed on an Agilent HP1100 LC system configured with a Waters SunFire reversed-phase C18 column (150 mm × 2.1 mm, 2.5 μM particle size). […] Detection was performed using a Waters Quattro triple quadrupole mass spectrometer with electrospray ionisation operated in positive and negative polarity switching mode. Quantification of analytes was performed using 3-point internal standard matrix-matched calibration using the peak area ratio of non-labelled analyte (precursor range: 50–300 ng g^−1, biotransformation product range: 50–150 ng g^−1) to the stable isotope labelled internal standard (SIL-IS) (100 ng g^−1). […]

The nature of a further data set: in vivo. To be noted: both, Gammarus pulex, in vivo, G. pulex. As to the method: as §1
(§2) Water samples collected from exposure experiments were filtered using Whatman filters (0.2 μM) and directly injected onto the LC-MS/MS for analysis. For G. pulex, A mass of 50 mg of lyophilised and ground material was extracted by glass bead pulverisation in 5 mL of acetonitrile and diluted with 100 mL of ammonium acetate buffer (10 mM) for loading onto Waters HLB solid phase extraction (SPE) cartridges (6 cc, 200 mg sorbent).
(§3) Briefly, separations were performed on an Agilent HP1100 LC system configured with a Waters SunFire reversed-phase C18 column (150 mm × 2.1 mm, 2.5 μM particle size). […] Detection was performed using a Waters Quattro triple quadrupole mass spectrometer with electrospray ionisation operated in positive and negative polarity switching mode. Quantification of analytes was performed using 3-point internal standard matrix-matched calibration using the peak area ratio of non-labelled analyte (precursor range: 50–300 ng g^−1, biotransformation product range: 50–150 ng g^−1) to the stable isotope labelled internal standard (SIL-IS) (100 ng g^−1).
(§4) Herein, the authors define BCFtotal as the summation of the BCF of both parent/precursor and biotransformation products (i.e. the total body burden). Whereas, BCFparent will be used to describe the BCF determined for the parent compound alone.

The test system of data set [2] is Gammarus pulex. Put plainly: in vivo. To be noted: simultaneous parametrisation; exposure 1 μg L^−1 (warfarin, propranolol 10 μg L^−1). The method, then:
as §1, §2, §3, §4

For data set [3] the following is noted: across the exposure period. The method, then:
as §1, §2

In the case of `O=C1Nc2ccc(Cl)cc2C(c2ccccc2)=NC1O` (centres unmarked) [oxazepam], in the data set with Gammarus pulex [1], the “mean concentration of biotransformation product at 48 h (end of the uptake phase)” value is 50 ± 23 ng g^−1 dw.
For the molecule `CN1C(=O)CN=C(c2ccccc2)c2cc(Cl)ccc21` [Diazepam, diazepam], the concentration at 48 h in “in vivo” (pH 8.19, Concentration, 48h Mean, n=3, exposure 1 μg L^−1 (warfarin, propranolol 10 μg L^−1)) was 45 ng/g; in “in vivo” (pH 8.19, internal concentration at the end of the uptake phase, 48 h, exposure 1 μg L^−1 (propranolol 10 μg L^−1)), ≤ 51 ng/g. Besides, in the data set on Gammarus pulex [2], the “k1 (uptake rate constant), Simultaneous” value was determined as 9.5942. Further, in data set [3], the “stability of aqueous pharmaceutical concentration” value is recorded as “remained stable”.
